Results are given in words; binding and its absence hold for the method and conditions named. Binding seen in cells or lysates may run through a third protein. Some binding calls cover weakened binding; strength is not graded here.

By UniProt entry, the sequences of proteins in these tests, tags left out. Residues count along the entry.
UniProt O75460, residues 19-977: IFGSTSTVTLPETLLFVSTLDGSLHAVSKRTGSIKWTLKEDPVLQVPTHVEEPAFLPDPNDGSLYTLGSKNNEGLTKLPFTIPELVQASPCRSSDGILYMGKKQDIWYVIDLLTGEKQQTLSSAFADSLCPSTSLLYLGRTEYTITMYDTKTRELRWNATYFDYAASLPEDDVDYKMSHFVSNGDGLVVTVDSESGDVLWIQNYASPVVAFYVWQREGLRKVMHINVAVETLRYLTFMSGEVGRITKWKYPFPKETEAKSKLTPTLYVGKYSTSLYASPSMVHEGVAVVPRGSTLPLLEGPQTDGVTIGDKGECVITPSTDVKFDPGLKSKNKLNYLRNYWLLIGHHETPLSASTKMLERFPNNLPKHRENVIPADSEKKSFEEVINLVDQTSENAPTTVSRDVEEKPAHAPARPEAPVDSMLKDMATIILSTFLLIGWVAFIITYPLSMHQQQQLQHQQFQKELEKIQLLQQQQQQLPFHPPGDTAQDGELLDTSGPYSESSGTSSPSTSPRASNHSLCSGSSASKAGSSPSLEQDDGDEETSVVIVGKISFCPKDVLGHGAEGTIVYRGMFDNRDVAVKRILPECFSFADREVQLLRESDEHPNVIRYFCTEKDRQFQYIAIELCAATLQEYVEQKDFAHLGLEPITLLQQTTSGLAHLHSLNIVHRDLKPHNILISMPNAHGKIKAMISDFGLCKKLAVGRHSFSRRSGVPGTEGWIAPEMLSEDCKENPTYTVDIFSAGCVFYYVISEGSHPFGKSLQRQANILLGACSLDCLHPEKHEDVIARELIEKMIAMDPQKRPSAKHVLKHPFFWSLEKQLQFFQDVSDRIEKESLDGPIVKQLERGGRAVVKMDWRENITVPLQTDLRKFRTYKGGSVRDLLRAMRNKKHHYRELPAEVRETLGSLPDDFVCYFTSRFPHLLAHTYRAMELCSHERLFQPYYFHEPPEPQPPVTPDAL

This assay has as its target inositol-requiring enzyme 1α (human (endogenous in Capan-2 and SW1990)) (UniProt O75460). The assay is described as follows: co-IP; lysates of Capan-2 and SW1990 cells, without or with thapsigargin (TG) treatment; magnetic beads preincubated with CRT, IRE1α or IgG antibodies, incubated with soluble supernatants at 4 °C overnight; Western blot. (In general: In western blotting, separated proteins are transferred to a membrane and probed.)

For “Calreticulin (from UniProt P27797 18-417)”, the binding entry was “binds”.

The values are drawn from article PMC7542892.
